Source: publication PMC11739459
Results are given in words; binding and its absence hold for the method and conditions named. Binding seen in cells or lysates may run through a third protein. Some entries that bind do so weakly or less than the wild type.

Chains of the proteins cited; added tags and fusions are not shown. Residues count along the entry.
UniProt P16070, residues 21-742: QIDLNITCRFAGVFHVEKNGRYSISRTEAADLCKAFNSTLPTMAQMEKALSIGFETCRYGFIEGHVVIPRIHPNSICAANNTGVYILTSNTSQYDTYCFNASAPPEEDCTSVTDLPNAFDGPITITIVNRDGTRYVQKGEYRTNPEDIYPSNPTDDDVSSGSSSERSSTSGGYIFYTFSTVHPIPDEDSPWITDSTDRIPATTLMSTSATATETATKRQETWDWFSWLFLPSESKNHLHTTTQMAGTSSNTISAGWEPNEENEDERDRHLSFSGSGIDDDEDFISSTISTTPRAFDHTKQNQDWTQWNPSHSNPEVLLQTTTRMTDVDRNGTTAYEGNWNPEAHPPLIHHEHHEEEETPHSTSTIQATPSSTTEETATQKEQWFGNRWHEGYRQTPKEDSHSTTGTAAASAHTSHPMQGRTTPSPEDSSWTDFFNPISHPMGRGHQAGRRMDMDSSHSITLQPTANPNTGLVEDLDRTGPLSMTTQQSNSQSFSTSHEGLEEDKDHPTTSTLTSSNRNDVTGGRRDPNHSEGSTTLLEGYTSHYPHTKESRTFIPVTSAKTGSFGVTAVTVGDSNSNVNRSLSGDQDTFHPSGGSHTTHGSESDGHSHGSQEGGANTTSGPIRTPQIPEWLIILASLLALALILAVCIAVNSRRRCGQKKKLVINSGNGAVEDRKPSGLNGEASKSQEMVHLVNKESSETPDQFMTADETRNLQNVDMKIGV
UniProt P13611, residues 21-3396: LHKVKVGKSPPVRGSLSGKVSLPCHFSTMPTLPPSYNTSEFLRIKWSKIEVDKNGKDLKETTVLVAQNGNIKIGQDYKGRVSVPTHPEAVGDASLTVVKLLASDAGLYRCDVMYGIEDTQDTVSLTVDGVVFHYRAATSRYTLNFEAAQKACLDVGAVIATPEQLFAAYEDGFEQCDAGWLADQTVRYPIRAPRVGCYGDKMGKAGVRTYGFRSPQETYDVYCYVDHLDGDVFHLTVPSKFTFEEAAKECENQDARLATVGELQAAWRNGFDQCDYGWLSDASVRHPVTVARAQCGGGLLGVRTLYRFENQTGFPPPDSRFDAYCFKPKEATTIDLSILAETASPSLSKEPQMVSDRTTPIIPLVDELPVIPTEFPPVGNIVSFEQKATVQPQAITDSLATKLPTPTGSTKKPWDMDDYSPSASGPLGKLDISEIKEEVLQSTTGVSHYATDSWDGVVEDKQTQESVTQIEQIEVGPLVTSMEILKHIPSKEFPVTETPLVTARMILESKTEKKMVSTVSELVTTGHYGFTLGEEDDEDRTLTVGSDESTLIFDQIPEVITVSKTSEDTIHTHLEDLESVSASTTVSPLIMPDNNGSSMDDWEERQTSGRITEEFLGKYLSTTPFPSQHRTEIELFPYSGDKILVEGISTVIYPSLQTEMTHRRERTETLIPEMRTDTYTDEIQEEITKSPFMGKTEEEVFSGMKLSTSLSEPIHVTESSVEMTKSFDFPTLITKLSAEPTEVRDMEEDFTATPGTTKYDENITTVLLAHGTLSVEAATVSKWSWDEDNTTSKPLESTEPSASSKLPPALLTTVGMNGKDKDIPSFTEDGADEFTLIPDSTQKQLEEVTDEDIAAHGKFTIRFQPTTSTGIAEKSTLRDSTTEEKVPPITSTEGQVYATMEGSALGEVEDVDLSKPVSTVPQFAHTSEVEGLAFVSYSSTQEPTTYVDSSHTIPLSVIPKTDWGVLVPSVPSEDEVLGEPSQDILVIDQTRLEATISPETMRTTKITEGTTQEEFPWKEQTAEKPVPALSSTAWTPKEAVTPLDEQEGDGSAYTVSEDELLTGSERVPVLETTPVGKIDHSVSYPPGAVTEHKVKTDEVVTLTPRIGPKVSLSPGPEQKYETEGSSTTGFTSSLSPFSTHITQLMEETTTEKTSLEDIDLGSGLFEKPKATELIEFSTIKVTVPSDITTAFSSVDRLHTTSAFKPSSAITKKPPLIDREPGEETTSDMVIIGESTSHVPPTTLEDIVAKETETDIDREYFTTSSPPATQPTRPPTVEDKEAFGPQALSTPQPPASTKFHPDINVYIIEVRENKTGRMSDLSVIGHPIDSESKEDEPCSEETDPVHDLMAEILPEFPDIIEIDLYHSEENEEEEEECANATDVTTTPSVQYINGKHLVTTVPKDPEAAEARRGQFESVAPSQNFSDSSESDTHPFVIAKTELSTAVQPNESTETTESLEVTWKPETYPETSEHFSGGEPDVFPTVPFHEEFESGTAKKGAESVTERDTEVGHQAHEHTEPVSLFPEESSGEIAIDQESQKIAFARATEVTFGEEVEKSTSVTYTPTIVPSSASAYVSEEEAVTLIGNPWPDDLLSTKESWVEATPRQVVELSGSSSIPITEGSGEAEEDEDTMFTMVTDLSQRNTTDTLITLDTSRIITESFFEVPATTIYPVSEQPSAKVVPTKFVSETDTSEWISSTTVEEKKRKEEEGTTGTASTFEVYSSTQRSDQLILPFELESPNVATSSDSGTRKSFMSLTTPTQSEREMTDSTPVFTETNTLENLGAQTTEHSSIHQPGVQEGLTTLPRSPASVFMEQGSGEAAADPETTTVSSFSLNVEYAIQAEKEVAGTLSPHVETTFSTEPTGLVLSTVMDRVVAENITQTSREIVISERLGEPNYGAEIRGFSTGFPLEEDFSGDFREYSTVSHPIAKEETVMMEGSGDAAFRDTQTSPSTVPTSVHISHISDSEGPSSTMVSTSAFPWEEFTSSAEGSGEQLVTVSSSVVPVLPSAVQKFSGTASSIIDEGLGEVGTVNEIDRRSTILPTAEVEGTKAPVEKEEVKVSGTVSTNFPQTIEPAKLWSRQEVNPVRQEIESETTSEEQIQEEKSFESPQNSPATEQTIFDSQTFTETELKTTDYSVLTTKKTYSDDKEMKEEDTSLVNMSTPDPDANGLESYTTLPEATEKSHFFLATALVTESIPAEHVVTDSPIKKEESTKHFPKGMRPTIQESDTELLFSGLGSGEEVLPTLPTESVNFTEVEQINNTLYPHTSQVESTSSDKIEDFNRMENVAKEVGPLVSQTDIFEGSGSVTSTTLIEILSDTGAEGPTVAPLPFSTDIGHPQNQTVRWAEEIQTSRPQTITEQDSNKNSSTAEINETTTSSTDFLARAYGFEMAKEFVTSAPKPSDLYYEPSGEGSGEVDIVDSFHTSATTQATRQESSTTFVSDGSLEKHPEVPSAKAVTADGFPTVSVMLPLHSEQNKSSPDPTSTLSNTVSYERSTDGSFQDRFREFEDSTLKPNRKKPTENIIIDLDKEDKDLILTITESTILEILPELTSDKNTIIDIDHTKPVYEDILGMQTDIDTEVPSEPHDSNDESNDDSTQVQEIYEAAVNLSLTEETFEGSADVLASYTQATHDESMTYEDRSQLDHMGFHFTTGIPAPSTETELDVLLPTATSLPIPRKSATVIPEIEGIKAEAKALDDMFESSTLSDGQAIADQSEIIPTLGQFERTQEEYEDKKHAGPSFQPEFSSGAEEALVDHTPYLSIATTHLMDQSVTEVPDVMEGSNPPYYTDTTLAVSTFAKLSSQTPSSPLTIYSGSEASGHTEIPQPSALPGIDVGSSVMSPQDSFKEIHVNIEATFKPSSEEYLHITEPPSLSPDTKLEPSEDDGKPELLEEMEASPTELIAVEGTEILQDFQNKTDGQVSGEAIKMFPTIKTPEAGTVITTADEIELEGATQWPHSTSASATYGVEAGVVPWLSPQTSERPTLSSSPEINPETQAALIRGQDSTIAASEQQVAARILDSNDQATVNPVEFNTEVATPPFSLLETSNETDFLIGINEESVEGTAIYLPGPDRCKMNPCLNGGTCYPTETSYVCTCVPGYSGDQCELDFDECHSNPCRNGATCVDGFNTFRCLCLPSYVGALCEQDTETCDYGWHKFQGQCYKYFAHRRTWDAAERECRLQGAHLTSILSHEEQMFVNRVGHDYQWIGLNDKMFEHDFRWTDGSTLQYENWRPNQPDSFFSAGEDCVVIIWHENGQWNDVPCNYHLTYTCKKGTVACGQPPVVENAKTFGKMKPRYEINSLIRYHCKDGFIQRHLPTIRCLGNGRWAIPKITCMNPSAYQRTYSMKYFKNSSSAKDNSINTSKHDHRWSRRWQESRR

Assays:
[1] = molecular target: CD44 (human (endogenous in THP-1-derived macrophages and human GC cell lines)) (UniProt P16070); assay: co-IP; lysate of GC cells; incubated overnight with control IgG or specific antibodies, Protein A + G agarose beads 2 h at 4°C, washed in PBS, SDS-PAGE
[2] = molecular target: CD44 (human (endogenous in THP-1-derived macrophages and human GC cell lines)) (UniProt P16070); assay: co-IP; lysate of polarized macrophages; incubated overnight with control IgG or specific antibodies, Protein A + G agarose beads 2 h at 4°C, washed in PBS, SDS-PAGE

binding [1]: binds
binding [2]: binds
Substance: versican (VCAN) (from UniProt P13611 21-3396)
